The target in this assay is CD99 short form (retrovirally expressed in CD99 negative Ramos cells). The assay can be described thus: co-IP; lysates of Ramos cells expressing CD99 short form or CD99 long form precipitated with anti-CD99 mAb; Western blot with anti-MHC class I, anti-MHC class II, anti-CD81, anti-NTAL mAbs; CD99 negative Ramos cells as control.

Results are given in words; binding and its absence hold for the method and conditions named. Binding seen in cells or lysates may run through a third protein. A result given as binding can be weak or reduced; the word gives no strength.

B1: NTAL (endogenous, Ramos cells) (protein, UniProt Q9GZY6 1-243)
chain: MSSGTELLWPGAALLVLLGVAASLCVRCSRPGAKRSEKIYQQRSLREDQQSFTGSRTYSLVGQAWPGPLADMAPTRKDKLLQFYPSLEDPASSRYQNFSKGSRHGSEEAYIDPIAMEYYNWGRFSKPPEDDDANSYENVLICKQKTTETGAQQEGIGGLCRGDLSLSLALKTGPTSGLCPSASPEEDEESEDYQNSASIHQWRESRKVMGQLQREASPGPVGSPDEEDGEPDYVNGEVAATEA
For B1, the binding entry is “no binding”.

B2: tetraspanin CD81 (endogenous, Ramos cells) (protein, UniProt P60033 1-236)
chain: MGVEGCTKCIKYLLFVFNFVFWLAGGVILGVALWLRHDPQTTNLLYLELGDKPAPNTFYVGIYILIAVGAVMMFVGFLGCYGAIQESQCLLGTFFTCLVILFACEVAAGIWGFVNKDQIAKDVKQFYDQALQQAVVDDDANNAKAVVKTFHETLDCCGSSTLTALTTSVLKNNLCPSGSNIISNLFKEDCHQKIDDLFSGKLYLIGIAAIVVAVIMIFEMILSMVLCCGIRNSSVY
On to B2, for which the binding entry is “binds”.

These data come from paper PMC3170336.
